We go through one sequence from publication PMC12010877.

The exact form of at least one protein or probe is not confirmed.

In this data set the test system is MBP-CsMYB77 (Camellia sinensis). In words: EMSA. Conditions: 6% polyacrylamide gel, TBE running buffer, pH and temperature not stated, recombinant protein, protein details: MBP (pMAL-c6T).

As for “GTTAAAATGGATAAGAATGTAACAGTTGACAAAAATAAAAAATTGAGCAT (double strand) [CsPOD44 promoter probe]”, the binding result was “binds”.
